Experimental data from patent publication US20050013820A1 (REGENTS OF THE UNIVERSITY OF MICHIGAN, published 2005).
No constants are given. Whether binding was seen depends on the method and setting. Some entries that bind do so weakly or less than the wild type. Blank lines part the entries; values can stand above or below the binder they belong to.

Columns and labels:
[1] = target: T1, recombinant human calreticulin (human, UniProt P27797 18-417); assay: restated in Example 14 (SPR results of Examples 12-13)
T1 construct: Expressed in E. coli as a GST fusion; also called Crt; purified recombinant calreticulin
T1 sequence: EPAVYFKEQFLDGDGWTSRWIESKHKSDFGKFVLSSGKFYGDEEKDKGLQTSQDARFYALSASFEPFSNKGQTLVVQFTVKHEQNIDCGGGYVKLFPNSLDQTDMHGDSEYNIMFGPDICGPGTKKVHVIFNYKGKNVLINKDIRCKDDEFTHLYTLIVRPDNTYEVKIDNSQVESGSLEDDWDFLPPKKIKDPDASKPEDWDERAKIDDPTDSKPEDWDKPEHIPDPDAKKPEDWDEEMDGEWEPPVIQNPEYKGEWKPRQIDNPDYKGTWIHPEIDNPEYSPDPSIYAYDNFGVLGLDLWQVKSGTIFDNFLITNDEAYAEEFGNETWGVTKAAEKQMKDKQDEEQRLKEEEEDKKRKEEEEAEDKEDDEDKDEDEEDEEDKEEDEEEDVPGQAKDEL

[2] = target: T1, recombinant human calreticulin; assay: SPR competition (FIG. 16 legend)
[3] = target: T1, recombinant human calreticulin; assay: SPR competition on immobilized calreticulin; competitors 65-78*0401 and 65-78*0404; IC50 number not given
[4] = target: T1, recombinant human calreticulin; assay: SPR (Biacore 2000), calreticulin immobilized on CM5
[5] = target: T1, recombinant human calreticulin; assay: figure legend FIG. 13B: surface plasmon resonance profiles
[6] = target: T1, recombinant human calreticulin; assay: SPR (Biacore), peptide immobilized on CM5, recombinant calreticulin in the flow phase (FIG. 13B)
[7] = target: T1, recombinant human calreticulin; assay: SPR (Biacore), calreticulin immobilized on CM5 (FIG. 15 legend)
[8] = target: T1, recombinant human calreticulin; assay: figure legend FIG. 13A: peptide affinity chromatography, immunoblot
[9] = target: T1, recombinant human calreticulin; assay: peptide-Sepharose affinity column, immunoblot of eluate (FIG. 13A)
[10] = target: T1, recombinant human calreticulin; assay: SPR (Biacore), control competition with QKRAE

B3: pentapeptide QKRLA (peptide)
peptide: QKRLA
binding [7]: binds

B4: pentapeptide QKRAA (peptide)
peptide: QKRAA
binding [7]: binds

B5: peptide 65-78*0404 (peptide)
peptide: KDLLEQRRAAVDTY
binding [8]: binds
binding [9]: binds

B8: peptide 65-79*0401 (peptide)
peptide: KDLLEQKRAAVDTYC
binding [5]: binds
binding [10]: binds
binding [6]: binds

Other lines, results leading:

binding [1]: binds
binding [2]: binds
binding [3]: binds
binding [4]: binds
B1: pentapeptide DKCLA (peptide)
peptide: DKCLA

binding [5]: binds
binding [6]: binds
B2: peptide 65-79*0404 (peptide)
peptide: KDLLEQRRAAVDTYC

binding [7]: binds
B6: pentapeptide QKCLA (peptide)
peptide: QKCLA

binding [7]: binds
B7: pentapeptide QRRAA (peptide)
peptide: QRRAA
